# Measurements: the supplement of paper PMC8728848
# This is one part of the list.
# B1: TAL6-6LysM (Trichoderma atroviride) (protein)
# chain: AASKLGVPQPAQRDQVNCQLYAVQPNDNCIDISSKNNITYAQLLSWNPSLSSTCSNLASLNSSSICVSNPKGTFSISSNTVGATDIATTTAPVPSPTLDQTTSRCAKYYQVSDGDDCSHLTAQFAITLKDFIFLNSEVWQNCTNLELGYYYCVEPVGYISTYPGYLPTATTKPFNQTSATSLPYDGDPWARFSSNSSVIPIANGTRVDCYSYVYVKNLTENLFADCWNMASMYEITREELVLWNPSLGNDGSSGSNLSGAEASQVASSIAIPTTAPSSITTNLYTYPCTVAANISYCVALVSSTGALPTNTAPPGPHASGEISNCTAWFAPEAYDTCKSILDIFEMSFANFYKMNPSVGPDCSGLAVGTNYCVSTYPNGEDPNDDWDGDDSIPSISPTGIITPTPTQSGMVSNCNKFYDVHSNDGCSAIASSQHVDLSSLYKWNPAIKTDCSGLQASVYVCIGILTTSMSTTSKLPTTTSKPSTTSKPPTGITTPTPTQSGMVKNCNKFYDVHSGDGCSAIASSQKVNLSSFYLWNPAVKTDCSGLQASVFVCIGTLTTSMSTTTSKLPTTTSKPSTTSKPPTGIITPTPTQNGMVKNCNKFYDVHSGDGCSAIASSQKVNLSSFYLWNPAVKTDCSGLQASVFVCVGTATTTTAAGITTPTPTQSGMVSGCNKFYDVHAGDGCSAIASSQKIALSSLYKWNPAVKTDCSGLQASVYICIGVGNAAAARVTGAAASFLEQKLISEEDLNSAVDHHHHHH
# Columns and labels:
# Experiment in all cases: glycan array binding signal (z-score within array); higher = stronger binding
# Conditions in all cases: glycan notation: IUPAC condensed, linker removed
# [1] = target: GalNAc(b1-4)GlcNAc(b1-2)Man
# Method in brief: (§1)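 Arrays were curated from the Consortium for Functional Glycomics database, 3228 in total, and kept only where the protein sequence was available. Binding is expressed as a within-array Z-score. This score was averaged across arrays of the same protein sequence at different concentrations or buffers and across linkers, and negative values can be read as non-binding.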
# [2] = target: GalNAc(b1-4)GlcNAc(b1-2)Man(a1-3)[GalNAc(b1-4)GlcNAc(b1-2)Man(a1-6)]Man(b1-4)GlcNAc(b1-4)GlcNAc
# Method in brief: as §1
# [3] = target: GalNAc(b1-4)GlcNAc(b1-3)GalNAc(b1-4)GlcNAc
# Method in brief: as §1
# GalNAc(b1-4)GlcNAc6S = target: GalNAc(b1-4)GlcNAc6S
# Method in brief: as §1
# GalNAc(b1-6)GalNAc = target: GalNAc(b1-6)GalNAc
# Method in brief: as §1
# GalNAc3S(b1-4)GlcNAc = target: GalNAc3S(b1-4)GlcNAc
# Method in brief: as §1
# GalNAc3S(b1-4)GlcNAc3S = target: GalNAc3S(b1-4)GlcNAc3S
# Method in brief: as §1
# [4] = target: GalNAc3S(b1-4)[Fuc(a1-3)]GlcNAc
# Method in brief: as §1
# GalNAc4S6S(b1-4)GlcNAc = target: GalNAc4S6S(b1-4)GlcNAc
# Method in brief: as §1
# GalNAc6S(b1-4)GlcNAc = target: GalNAc6S(b1-4)GlcNAc
# Method in brief: as §1
# Glc(a1-4)Glc = target: Glc(a1-4)Glc
# Method in brief: as §1
# [5] = target: Glc(a1-4)Glc(a1-4)Glc(a1-4)Glc
# Method in brief: as §1
# Glc(a1-6)Glc(a1-6)Glc = target: Glc(a1-6)Glc(a1-6)Glc
# Method in brief: as §1
# [6] = target: Glc(a1-6)Glc(a1-6)Glc(a1-6)Glc
# Method in brief: as §1
# Glc(b1-4)Glc = target: Glc(b1-4)Glc
# Method in brief: as §1
# Glc(b1-6)Glc = target: Glc(b1-6)Glc
# Method in brief: as §1
# GlcA(b1-3)Gal = target: GlcA(b1-3)Gal
# Method in brief: as §1
# GlcA(b1-3)GlcNAc = target: GlcA(b1-3)GlcNAc
# Method in brief: as §1
# GlcA(b1-6)Gal = target: GlcA(b1-6)Gal
# Method in brief: as §1
# [7] = target: GlcA3S(b1-3)Gal(b1-4)GlcNAc(b1-2)Man
# Method in brief: as §1
# [8] = target: GlcA3S(b1-3)Gal(b1-4)GlcNAc(b1-3)Gal(b1-4)Glc
# Method in brief: as §1
# [9] = target: GlcNAc(a1-3)Gal(b1-4)GlcNAc
# Method in brief: as §1
# [10] = target: GlcNAc(a1-4)Gal(b1-3)GlcNAc
# Method in brief: as §1
# [11] = target: GlcNAc(a1-4)Gal(b1-4)GalNAc
# Method in brief: as §1
# [12] = target: GlcNAc(a1-4)Gal(b1-4)GlcNAc
# Method in brief: as §1
# [13] = target: GlcNAc(a1-4)Gal(b1-4)GlcNAc(b1-3)Gal(b1-4)Glc
# Method in brief: as §1
# [14] = target: GlcNAc(a1-4)Gal(b1-4)GlcNAc(b1-3)Gal(b1-4)GlcNAc
# Method in brief: as §1
# [15] = target: GlcNAc(a1-4)Gal(b1-4)GlcNAc(b1-3)Gal(b1-4)GlcNAc(b1-3)Gal(b1-4)GlcNAc
# Method in brief: as §1
# [16] = target: GlcNAc(a1-4)Gal(b1-4)GlcNAc(b1-3)Gal(b1-4)[Fuc(a1-3)]GlcNAc(b1-3)Gal(b1-4)[Fuc(a1-3)]GlcNAc
# Method in brief: as §1
# [17] = target: GlcNAc(a1-6)Gal(b1-4)GlcNAc
# Method in brief: as §1
binder,measurement,setting,value
B1,glycan array binding signal (z-score),[1],-1.48
same,glycan array binding signal (z-score),[2],1.82
same,glycan array binding signal (z-score),[3],-1.49
same,glycan array binding signal (z-score),GalNAc(b1-4)GlcNAc6S,0.992
same,glycan array binding signal (z-score),GalNAc(b1-6)GalNAc,-0.303
same,glycan array binding signal (z-score),GalNAc3S(b1-4)GlcNAc,-0.702
same,glycan array binding signal (z-score),GalNAc3S(b1-4)GlcNAc3S,0.68
same,glycan array binding signal (z-score),[4],-0.003
same,glycan array binding signal (z-score),GalNAc4S6S(b1-4)GlcNAc,-1.08
same,glycan array binding signal (z-score),GalNAc6S(b1-4)GlcNAc,0.157
same,glycan array binding signal (z-score),Glc(a1-4)Glc,-0.579
same,glycan array binding signal (z-score),[5],-0.353
same,glycan array binding signal (z-score),Glc(a1-6)Glc(a1-6)Glc,-0.776
same,glycan array binding signal (z-score),[6],-0.39
same,glycan array binding signal (z-score),Glc(b1-4)Glc,-0.772
same,glycan array binding signal (z-score),Glc(b1-6)Glc,-0.129
same,glycan array binding signal (z-score),GlcA(b1-3)Gal,0.744
same,glycan array binding signal (z-score),GlcA(b1-3)GlcNAc,1.11
same,glycan array binding signal (z-score),GlcA(b1-6)Gal,0.563
same,glycan array binding signal (z-score),[7],2.02
same,glycan array binding signal (z-score),[8],0.146
same,glycan array binding signal (z-score),[9],-0.284
same,glycan array binding signal (z-score),[10],0.821
same,glycan array binding signal (z-score),[11],-0.903
same,glycan array binding signal (z-score),[12],0.445
same,glycan array binding signal (z-score),[13],-1.31
same,glycan array binding signal (z-score),[14],-1.49
same,glycan array binding signal (z-score),[15],-0.008
same,glycan array binding signal (z-score),[16],-0.365
same,glycan array binding signal (z-score),[17],0.905

# Part of the list above in a different format:
binder | measurement | setting | value
B1 | glycan array binding signal (z-score) | [7] | 2.02
same | glycan array binding signal (z-score) | [8] | 0.146
